# Results as given in publication PMC5097431.
# The chains behind the UniProt entries cited, without tags or fusion partners. Where a name states a change or a piece, a line headed by the entry shows the natural chain unless it says otherwise.
# UniProt Q96L91: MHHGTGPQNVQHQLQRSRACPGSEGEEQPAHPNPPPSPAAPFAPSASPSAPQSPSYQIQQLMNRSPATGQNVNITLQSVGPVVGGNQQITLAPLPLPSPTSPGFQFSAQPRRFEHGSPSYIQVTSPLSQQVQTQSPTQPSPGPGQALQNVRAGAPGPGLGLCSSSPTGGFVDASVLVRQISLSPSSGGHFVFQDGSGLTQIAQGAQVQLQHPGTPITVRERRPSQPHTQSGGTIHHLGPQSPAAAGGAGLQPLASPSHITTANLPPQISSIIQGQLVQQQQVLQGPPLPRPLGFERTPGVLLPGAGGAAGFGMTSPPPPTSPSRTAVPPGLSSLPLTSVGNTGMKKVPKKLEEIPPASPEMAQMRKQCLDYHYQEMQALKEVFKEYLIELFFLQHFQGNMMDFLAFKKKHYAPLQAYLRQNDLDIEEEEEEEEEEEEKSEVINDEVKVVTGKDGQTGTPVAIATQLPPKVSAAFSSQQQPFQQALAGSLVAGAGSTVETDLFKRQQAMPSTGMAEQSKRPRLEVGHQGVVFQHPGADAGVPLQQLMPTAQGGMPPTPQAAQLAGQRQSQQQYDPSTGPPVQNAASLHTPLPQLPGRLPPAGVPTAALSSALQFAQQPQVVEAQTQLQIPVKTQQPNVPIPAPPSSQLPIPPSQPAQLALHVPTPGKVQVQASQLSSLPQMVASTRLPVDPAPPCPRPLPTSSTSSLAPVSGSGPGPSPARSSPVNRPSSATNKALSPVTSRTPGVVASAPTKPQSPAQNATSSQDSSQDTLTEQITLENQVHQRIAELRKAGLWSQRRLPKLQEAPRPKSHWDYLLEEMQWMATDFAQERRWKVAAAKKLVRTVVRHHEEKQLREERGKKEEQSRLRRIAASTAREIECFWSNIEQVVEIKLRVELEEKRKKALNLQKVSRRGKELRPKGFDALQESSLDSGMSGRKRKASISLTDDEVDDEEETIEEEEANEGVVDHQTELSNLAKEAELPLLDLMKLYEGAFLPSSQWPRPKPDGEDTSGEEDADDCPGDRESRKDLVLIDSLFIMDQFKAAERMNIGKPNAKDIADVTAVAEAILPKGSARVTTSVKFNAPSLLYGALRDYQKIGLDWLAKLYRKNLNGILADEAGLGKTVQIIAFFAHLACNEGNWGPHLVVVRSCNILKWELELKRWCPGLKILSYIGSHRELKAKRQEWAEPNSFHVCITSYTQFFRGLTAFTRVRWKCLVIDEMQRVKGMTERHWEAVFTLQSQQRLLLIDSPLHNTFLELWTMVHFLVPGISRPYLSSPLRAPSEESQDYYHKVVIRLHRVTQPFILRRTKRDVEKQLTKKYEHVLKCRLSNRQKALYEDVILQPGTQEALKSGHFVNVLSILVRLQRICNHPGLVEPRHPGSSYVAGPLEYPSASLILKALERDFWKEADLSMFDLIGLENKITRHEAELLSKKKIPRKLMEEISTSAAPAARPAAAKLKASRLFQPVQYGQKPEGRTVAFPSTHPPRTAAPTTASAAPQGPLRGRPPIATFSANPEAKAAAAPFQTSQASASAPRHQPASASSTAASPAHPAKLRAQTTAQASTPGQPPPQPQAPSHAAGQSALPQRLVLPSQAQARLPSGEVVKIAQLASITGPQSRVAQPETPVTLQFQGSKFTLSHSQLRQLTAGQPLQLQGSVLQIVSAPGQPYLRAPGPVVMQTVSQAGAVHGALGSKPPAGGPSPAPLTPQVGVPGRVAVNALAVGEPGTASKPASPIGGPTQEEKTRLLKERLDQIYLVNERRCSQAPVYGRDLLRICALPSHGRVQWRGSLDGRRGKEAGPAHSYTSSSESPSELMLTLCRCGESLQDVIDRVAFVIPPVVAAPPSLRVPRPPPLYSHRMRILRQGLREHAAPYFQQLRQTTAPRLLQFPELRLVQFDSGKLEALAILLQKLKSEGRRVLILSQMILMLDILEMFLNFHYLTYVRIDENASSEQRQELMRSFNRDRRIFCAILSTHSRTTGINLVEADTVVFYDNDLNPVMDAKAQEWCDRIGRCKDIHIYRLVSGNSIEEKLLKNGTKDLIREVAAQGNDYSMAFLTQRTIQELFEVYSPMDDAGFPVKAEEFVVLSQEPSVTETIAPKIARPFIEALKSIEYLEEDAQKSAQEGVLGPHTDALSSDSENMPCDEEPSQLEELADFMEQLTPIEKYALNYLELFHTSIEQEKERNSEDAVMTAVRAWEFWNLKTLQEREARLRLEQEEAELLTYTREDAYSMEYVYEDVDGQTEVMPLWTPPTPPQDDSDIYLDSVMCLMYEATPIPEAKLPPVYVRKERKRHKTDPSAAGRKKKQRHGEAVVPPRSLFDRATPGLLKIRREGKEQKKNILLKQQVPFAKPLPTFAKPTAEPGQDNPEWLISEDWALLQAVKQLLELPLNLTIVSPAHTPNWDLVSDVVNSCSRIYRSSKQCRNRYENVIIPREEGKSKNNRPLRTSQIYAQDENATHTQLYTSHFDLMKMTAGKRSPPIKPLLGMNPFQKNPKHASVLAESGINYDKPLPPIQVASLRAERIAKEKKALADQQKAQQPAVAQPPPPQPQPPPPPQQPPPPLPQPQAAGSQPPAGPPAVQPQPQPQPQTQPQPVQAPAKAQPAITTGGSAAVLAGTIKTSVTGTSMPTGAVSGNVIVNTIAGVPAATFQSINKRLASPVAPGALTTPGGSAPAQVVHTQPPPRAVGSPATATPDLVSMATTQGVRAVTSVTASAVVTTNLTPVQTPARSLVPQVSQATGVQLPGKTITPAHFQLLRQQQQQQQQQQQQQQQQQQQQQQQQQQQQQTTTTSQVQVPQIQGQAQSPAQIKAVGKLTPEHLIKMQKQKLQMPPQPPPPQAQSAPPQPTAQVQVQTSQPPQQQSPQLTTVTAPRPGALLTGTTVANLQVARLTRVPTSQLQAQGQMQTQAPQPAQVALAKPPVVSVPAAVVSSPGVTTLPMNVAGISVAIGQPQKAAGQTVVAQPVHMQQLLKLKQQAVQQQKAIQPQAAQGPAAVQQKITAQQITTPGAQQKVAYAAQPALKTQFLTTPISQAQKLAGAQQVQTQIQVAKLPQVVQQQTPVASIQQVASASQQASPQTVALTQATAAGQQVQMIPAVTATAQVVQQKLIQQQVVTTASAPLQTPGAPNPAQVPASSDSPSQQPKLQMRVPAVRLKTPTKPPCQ
# UniProt Q13315: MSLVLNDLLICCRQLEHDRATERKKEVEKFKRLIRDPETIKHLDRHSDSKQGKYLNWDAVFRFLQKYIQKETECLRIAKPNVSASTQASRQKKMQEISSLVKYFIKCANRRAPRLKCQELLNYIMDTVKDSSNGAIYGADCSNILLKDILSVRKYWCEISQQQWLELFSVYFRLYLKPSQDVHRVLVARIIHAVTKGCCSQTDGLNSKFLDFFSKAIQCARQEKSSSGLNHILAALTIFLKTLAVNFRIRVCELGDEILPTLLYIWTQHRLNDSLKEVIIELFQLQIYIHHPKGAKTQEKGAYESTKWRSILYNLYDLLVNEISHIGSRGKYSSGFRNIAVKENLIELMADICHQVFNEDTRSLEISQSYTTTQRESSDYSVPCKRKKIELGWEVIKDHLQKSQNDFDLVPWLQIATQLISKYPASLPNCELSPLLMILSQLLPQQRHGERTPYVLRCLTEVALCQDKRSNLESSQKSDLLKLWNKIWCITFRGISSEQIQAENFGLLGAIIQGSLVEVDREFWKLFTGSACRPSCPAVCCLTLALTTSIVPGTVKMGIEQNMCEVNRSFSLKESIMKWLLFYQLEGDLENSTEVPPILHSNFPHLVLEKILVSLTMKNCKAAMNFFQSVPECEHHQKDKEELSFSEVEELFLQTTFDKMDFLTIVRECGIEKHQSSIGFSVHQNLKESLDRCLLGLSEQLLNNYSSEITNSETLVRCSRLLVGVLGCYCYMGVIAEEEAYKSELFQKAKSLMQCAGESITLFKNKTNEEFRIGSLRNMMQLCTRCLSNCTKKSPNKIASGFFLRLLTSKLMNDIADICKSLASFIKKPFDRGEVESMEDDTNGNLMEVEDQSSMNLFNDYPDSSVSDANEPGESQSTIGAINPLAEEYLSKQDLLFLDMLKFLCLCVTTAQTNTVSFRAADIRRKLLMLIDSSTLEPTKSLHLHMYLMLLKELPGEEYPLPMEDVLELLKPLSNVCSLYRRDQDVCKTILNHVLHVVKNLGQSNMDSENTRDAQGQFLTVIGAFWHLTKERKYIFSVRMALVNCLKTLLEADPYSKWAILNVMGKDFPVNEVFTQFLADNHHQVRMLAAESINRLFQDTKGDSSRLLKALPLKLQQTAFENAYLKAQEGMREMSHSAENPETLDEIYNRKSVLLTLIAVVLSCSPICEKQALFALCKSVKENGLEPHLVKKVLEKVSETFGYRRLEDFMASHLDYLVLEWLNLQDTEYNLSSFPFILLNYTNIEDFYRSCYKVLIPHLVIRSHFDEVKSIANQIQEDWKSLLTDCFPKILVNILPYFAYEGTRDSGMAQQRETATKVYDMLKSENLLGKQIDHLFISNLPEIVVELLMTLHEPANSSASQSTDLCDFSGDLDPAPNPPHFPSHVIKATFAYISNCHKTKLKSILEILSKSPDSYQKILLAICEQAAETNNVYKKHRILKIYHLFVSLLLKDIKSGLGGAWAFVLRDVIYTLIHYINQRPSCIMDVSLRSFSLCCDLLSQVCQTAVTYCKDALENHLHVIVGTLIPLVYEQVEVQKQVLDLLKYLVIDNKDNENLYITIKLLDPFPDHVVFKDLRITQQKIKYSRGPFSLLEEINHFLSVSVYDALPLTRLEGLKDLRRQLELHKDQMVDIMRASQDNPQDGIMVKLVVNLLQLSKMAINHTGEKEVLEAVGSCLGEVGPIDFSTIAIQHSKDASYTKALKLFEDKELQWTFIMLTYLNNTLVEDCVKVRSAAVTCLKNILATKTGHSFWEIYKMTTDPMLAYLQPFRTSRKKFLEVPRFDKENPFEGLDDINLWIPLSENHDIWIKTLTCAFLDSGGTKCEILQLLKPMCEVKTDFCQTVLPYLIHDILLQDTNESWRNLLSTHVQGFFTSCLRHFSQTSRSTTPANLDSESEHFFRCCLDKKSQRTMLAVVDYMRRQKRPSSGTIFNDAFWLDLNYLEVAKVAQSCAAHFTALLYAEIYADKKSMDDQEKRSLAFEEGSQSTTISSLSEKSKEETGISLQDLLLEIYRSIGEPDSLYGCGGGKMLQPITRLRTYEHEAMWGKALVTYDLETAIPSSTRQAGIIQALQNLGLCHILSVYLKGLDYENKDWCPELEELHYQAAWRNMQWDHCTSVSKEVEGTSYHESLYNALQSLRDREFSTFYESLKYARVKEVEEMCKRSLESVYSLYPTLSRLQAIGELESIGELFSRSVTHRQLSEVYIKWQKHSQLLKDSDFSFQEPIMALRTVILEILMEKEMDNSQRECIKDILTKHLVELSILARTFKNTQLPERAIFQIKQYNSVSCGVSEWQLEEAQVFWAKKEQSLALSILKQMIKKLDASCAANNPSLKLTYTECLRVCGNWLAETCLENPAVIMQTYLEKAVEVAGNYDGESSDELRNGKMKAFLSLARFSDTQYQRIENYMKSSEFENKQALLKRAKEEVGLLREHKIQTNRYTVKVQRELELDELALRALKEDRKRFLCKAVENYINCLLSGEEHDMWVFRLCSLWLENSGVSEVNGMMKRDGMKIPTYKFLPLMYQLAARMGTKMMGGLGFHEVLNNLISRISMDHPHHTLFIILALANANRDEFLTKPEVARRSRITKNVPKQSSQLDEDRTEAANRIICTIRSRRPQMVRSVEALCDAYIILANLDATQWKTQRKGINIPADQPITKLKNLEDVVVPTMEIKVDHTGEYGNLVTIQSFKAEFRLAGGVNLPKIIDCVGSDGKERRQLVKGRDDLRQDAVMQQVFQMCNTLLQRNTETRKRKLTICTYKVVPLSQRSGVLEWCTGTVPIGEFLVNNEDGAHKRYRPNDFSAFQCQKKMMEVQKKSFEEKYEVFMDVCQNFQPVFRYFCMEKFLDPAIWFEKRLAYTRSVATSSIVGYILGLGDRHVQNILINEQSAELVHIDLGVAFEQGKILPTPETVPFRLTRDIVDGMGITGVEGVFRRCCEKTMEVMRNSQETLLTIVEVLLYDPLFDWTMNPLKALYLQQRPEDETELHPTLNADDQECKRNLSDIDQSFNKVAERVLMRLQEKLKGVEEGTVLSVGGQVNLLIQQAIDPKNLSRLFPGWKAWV
# No constants are given. Whether binding was seen depends on the method and setting. Binding seen in cells or lysates may run through a third protein. Some entries that bind do so weakly or less than the wild type.
# Experiments:
# [1] = target: HA-p400 (p400 ATPase), expressed in HEK293T cells (UniProt Q96L91); test: co-IP; HEK293T cells (control, stably expressing Flag-F1, or transiently expressing F2 or F3) transiently expressing HA-p400; lysates pre-cleared with protein A/G beads for 3 h, precipitated with anti-HA antibody-conjugated beads; immunoblot for endogenous ATM, endogenous TRRAP and Flag (Fig. 5a, 5b)
# [2] = target: Flag-ATM, expressed in baculovirus-infected Sf9 cells (UniProt Q13315); test: co-IP; baculovirus-infected Sf9 cells, whole cell extract at 48 h post-infection, reciprocal precipitation with anti-Flag M2 agarose; immunoblot (Fig. 2c)
Substance,binding [1],binding [2]
"Flag-F1, N-terminal fragment 1 (1–719) of p400 (from UniProt Q96L91 1-719) (domain or fragment)",no binding,–
"HA-TIP60, expressed in baculovirus-infected Sf9 cells (from UniProt Q92993 1-513)",–,binds
"HA-p400, expressed in baculovirus-infected Sf9 cells (from UniProt Q96L91 1-3159)",–,binds
endogenous TRRAP of HEK293T cells (from UniProt Q9Y4A5 1-3859),binds,–
